Source: patent publication US20040152161A1
Results are given in words; binding and its absence hold for the method and conditions named. Some entries that bind do so weakly or less than the wild type. Tags and fused reporters may be left off the sequences shown.

Chains of the proteins cited; added tags and fusions are not shown. Lines headed by an entry give the natural chain unless they say otherwise; changes in a name come on top.
UniProt Q8NI17: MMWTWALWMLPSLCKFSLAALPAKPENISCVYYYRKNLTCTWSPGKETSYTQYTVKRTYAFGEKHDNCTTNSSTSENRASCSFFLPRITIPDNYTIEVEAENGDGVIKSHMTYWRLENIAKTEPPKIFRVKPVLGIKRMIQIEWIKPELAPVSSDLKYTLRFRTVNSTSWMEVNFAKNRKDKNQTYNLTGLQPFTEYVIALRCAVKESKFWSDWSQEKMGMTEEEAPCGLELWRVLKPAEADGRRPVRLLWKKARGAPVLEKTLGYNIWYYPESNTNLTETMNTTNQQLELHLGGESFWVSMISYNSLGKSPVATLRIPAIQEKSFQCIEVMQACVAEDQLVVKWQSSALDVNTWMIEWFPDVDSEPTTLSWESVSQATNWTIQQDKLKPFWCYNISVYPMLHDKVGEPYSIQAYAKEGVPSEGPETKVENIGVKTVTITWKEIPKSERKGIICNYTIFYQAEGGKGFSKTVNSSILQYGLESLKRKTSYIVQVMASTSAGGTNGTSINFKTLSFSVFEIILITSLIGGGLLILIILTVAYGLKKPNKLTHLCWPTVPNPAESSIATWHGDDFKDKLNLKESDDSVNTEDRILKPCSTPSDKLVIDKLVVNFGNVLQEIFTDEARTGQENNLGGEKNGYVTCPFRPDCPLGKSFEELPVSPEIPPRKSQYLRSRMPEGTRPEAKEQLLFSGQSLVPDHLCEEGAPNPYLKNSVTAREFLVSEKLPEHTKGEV
UniProt Q5VWK5: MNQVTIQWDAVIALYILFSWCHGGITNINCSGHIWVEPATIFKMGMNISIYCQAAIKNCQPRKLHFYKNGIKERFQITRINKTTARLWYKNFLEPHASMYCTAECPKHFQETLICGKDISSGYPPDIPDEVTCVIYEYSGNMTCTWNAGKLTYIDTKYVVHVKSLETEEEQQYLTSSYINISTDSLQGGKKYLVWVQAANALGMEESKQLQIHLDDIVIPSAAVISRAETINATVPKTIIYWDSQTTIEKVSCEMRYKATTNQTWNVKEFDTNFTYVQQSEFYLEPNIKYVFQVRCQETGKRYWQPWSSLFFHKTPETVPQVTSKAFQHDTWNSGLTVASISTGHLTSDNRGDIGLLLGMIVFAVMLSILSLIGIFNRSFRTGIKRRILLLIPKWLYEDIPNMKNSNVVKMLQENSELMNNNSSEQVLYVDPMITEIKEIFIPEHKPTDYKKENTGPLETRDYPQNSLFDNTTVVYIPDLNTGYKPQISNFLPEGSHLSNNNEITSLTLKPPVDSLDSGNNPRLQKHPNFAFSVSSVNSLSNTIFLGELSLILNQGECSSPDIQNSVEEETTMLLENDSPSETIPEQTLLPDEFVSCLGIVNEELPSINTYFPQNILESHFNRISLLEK

Legend:
[1] = target: HPR1 polypeptide (hematopoietin receptor HPR1), on cells (human) (UniProt Q8NI17); test: FACS on cells endogenously expressing HPR1 and HPR2 (COS-1, 293MSR, CB23, MP-1)
[2] = target: HPR2 polypeptide (hematopoietin receptor HPR2), on cells (human) (UniProt Q5VWK5); test: as above

- binding [1]: binds
- binding [2]: binds
B1: EBI-3-Fc fusion polypeptide (Fc fusion, UniProt Q14213 21-229, looked up, not shown: a dimerising Fc or GST)
chain: RKGPPAALTLPRVQCRASRYPIAVDCSWTLPPAPNSTSPVSFIATYRLGMAARGHSWPCLQQTPTSTSCTITDVQLFSMAPYVLNVTAVHPWGSSSSFVPFITEHIIKPDPPEGVRLSPLAERQLQVQWEPPGSWPFPEIFSLKYWIRYKRQGAARFHRVGPIEATSFILRAVRPRARYYVQVAAQDLTDYGELSDWSLPATATMSLGK
